Laboratory results taken from PMC3762332.
The exact form of at least one protein or probe is not confirmed. For some assays here: Where a protein sequence is shown, tags need not be part of it.

Sequences of proteins named here, by UniProt entry; tags and fusion partners are left off. A change or cut given only in a name is not applied to a line headed by its entry.
UniProt P43694: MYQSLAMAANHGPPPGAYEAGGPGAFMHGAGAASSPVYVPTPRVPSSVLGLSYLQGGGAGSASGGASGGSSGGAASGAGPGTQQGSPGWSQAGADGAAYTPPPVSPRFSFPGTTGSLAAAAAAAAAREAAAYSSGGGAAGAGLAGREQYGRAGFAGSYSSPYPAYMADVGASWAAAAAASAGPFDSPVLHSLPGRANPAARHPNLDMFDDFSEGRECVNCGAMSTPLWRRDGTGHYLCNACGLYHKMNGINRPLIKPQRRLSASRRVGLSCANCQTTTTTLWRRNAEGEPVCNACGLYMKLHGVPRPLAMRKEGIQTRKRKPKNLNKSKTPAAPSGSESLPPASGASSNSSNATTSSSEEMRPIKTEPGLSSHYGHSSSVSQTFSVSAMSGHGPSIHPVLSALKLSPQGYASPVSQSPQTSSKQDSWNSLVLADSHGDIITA
UniProt P37231: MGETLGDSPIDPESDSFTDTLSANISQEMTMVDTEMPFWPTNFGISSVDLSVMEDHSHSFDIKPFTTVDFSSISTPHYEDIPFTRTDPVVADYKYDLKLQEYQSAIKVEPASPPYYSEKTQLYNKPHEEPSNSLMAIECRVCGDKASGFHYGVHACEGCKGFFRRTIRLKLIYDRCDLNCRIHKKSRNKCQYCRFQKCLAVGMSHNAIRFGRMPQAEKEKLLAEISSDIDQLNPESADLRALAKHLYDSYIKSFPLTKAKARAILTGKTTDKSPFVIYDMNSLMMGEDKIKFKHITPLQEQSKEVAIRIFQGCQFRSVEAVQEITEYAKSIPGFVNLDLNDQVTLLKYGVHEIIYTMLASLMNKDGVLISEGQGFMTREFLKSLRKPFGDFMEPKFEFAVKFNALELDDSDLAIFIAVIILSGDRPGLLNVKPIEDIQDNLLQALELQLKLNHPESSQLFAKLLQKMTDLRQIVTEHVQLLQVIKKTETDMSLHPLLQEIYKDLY
UniProt Q8NC26: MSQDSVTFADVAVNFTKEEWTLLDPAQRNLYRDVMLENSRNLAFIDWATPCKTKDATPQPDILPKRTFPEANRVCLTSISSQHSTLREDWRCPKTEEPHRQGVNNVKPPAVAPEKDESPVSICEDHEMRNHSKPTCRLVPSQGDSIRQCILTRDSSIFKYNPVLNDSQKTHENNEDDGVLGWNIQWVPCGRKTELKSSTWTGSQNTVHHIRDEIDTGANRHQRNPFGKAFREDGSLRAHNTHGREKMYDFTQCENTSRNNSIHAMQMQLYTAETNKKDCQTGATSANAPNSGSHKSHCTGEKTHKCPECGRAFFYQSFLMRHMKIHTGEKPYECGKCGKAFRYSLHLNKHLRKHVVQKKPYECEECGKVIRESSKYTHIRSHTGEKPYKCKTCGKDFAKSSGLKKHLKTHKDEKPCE
UniProt O00716: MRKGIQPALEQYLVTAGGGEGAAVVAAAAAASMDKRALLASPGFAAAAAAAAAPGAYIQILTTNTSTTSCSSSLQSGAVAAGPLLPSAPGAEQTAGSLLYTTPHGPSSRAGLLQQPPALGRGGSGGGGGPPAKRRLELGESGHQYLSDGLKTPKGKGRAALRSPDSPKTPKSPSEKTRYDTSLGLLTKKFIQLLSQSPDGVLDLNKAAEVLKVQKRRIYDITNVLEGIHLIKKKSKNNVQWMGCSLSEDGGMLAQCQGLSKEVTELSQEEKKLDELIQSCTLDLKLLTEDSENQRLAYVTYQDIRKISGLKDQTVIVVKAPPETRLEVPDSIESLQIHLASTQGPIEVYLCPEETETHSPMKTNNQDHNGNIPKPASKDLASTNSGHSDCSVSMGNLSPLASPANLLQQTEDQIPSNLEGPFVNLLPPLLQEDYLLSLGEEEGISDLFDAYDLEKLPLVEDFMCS
UniProt P20719: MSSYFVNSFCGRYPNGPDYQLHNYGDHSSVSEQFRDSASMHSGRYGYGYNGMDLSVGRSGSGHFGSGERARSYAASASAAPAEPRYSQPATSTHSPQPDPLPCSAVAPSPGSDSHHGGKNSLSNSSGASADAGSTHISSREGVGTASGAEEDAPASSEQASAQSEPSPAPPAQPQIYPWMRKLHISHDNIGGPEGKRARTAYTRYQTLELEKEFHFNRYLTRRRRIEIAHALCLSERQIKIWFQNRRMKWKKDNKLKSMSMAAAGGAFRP
UniProt P19793: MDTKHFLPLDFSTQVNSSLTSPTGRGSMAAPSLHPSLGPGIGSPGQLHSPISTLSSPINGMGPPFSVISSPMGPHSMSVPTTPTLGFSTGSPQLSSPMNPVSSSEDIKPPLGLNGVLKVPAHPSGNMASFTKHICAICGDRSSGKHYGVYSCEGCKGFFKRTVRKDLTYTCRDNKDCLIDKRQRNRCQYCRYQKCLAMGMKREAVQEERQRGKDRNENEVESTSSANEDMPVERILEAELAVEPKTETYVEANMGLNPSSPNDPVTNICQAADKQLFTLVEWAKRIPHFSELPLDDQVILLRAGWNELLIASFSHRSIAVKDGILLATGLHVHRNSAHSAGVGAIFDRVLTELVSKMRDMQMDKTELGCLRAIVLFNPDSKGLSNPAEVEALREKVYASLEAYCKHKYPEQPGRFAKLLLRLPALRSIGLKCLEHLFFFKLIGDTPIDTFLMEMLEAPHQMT
UniProt Q9BWM5: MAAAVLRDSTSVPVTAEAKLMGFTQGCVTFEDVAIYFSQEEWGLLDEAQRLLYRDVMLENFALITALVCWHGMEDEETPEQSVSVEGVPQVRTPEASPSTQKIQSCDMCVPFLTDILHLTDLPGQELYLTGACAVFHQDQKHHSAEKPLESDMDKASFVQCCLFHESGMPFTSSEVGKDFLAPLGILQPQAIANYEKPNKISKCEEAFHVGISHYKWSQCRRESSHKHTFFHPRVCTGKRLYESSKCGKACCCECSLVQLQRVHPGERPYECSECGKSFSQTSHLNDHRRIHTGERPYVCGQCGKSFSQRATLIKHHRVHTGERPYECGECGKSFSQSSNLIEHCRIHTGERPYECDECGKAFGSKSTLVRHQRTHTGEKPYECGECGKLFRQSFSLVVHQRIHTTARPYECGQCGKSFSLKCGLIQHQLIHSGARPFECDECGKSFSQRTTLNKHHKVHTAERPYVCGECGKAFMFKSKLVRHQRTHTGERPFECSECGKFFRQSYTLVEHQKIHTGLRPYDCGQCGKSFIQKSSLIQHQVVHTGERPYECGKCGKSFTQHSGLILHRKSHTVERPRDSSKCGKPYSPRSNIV
UniProt Q8IW36: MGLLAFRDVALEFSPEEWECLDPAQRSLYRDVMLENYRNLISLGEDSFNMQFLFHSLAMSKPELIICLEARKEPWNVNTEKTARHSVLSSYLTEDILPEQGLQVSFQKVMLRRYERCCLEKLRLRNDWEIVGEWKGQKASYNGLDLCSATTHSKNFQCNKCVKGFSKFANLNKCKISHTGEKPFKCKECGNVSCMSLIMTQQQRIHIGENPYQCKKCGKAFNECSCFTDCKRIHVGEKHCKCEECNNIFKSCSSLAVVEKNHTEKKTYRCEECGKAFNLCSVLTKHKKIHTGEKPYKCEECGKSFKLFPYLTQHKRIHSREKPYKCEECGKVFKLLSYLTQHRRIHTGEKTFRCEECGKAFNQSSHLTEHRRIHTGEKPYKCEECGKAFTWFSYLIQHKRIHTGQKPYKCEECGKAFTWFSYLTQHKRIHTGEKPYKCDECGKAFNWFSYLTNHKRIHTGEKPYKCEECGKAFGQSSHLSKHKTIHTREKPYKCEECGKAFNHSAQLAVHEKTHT
UniProt P05549: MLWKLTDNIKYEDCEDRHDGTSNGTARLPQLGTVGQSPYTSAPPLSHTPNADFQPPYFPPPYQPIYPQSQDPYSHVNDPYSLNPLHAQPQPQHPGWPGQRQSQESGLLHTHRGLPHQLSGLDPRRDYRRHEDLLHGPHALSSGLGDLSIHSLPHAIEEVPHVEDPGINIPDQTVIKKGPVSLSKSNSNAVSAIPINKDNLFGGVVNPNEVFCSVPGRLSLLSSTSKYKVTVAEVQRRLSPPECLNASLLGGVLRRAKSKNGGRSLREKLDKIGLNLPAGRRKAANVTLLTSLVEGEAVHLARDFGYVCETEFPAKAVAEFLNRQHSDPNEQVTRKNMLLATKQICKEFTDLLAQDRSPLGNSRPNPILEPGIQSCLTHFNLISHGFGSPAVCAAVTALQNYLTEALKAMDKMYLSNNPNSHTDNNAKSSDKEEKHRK

Columns and labels:
Experiment in all cases: protein microarray
Details in all cases: 10-fold cold unmethylated competitor; 5mC at CpG (SssI, both strands); recombinant protein; protein details: GST (N-terminal); label: Cy5
GATA4 (Homo sapiens) = GATA4 (Homo sapiens) (UniProt P43694)
SCAPER (Homo sapiens) = biological target: T1, SCAPER (Homo sapiens) (UniProt Q9BY12)
T1 sequence (looked up, limits assumed): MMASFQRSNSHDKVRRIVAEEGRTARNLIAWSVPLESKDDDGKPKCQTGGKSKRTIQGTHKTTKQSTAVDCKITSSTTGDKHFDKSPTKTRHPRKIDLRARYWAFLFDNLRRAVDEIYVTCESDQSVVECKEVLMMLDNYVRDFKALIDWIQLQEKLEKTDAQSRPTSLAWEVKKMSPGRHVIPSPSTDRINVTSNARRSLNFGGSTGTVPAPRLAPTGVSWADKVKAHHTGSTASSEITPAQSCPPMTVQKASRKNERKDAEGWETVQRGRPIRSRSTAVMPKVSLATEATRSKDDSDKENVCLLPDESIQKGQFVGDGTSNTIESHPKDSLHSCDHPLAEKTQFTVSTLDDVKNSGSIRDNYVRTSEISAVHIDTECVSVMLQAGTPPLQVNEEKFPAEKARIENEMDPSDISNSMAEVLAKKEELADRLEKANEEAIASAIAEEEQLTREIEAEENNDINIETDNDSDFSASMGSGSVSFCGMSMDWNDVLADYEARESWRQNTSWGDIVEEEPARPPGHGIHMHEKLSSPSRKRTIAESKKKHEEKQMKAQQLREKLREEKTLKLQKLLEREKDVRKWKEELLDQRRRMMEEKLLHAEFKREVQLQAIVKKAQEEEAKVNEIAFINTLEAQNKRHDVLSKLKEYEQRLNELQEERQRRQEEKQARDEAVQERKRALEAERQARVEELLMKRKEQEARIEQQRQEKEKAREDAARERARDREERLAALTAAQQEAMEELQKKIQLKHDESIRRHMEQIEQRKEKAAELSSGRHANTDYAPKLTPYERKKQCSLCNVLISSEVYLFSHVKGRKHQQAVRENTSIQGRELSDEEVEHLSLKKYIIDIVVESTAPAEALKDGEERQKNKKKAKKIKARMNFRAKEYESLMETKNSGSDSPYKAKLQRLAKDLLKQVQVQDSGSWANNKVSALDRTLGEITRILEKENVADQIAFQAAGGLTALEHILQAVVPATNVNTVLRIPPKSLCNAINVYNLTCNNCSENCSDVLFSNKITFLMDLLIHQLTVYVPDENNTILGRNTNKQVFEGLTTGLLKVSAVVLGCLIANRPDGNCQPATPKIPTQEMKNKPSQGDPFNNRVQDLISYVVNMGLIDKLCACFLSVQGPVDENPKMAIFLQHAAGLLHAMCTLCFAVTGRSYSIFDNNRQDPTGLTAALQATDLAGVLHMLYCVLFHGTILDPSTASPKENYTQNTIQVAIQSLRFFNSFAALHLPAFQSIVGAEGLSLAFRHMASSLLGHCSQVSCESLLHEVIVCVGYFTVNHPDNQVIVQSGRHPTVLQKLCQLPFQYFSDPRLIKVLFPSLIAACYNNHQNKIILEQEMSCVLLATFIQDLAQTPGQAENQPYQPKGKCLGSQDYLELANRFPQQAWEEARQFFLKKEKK

PPARG (Homo sapiens) = PPARG (Homo sapiens) (UniProt P37231)
ZNF114 (Homo sapiens) = ZNF114 (Homo sapiens) (UniProt Q8NC26)
E2F3 (Homo sapiens) = E2F3 (Homo sapiens) (UniProt O00716)
HOXA5 (Homo sapiens) = HOXA5 (Homo sapiens) (UniProt P20719)
RNF138 (Homo sapiens) = biological target: T2, RNF138 (Homo sapiens) (UniProt Q8WVD3)
T2 sequence (looked up, limits assumed): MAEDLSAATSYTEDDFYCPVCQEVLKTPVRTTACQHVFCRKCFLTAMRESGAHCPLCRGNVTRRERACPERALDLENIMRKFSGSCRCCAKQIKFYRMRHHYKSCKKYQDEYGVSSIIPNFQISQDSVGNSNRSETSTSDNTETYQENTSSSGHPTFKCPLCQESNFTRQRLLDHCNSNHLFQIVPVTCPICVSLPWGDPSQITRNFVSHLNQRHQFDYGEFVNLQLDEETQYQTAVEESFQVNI

RXRA (Homo sapiens) = RXRA (Homo sapiens) (UniProt P19793)
BCL3 (Homo sapiens) = biological target: T3, BCL3 (Homo sapiens) (UniProt P20749)
T3 sequence (looked up, limits assumed): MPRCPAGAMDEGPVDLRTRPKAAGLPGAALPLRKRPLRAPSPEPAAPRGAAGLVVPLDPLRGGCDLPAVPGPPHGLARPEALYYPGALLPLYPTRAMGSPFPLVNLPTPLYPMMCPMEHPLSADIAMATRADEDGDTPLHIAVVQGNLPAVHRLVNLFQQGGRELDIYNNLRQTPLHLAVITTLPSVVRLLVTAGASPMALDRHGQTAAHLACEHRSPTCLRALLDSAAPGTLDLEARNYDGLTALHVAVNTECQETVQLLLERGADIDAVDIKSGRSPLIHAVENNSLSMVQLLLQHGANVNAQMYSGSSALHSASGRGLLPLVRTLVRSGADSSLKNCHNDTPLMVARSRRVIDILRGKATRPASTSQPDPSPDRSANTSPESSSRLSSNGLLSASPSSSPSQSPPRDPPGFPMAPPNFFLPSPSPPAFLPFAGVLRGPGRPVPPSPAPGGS

ZNF416 (Homo sapiens) = ZNF416 (Homo sapiens) (UniProt Q9BWM5)
ZNF695 (Homo sapiens) = ZNF695 (Homo sapiens) (UniProt Q8IW36)
SMAD4 (Homo sapiens) = biological target: T4, SMAD4 (Homo sapiens) (UniProt Q13485)
T4 sequence (looked up, limits assumed): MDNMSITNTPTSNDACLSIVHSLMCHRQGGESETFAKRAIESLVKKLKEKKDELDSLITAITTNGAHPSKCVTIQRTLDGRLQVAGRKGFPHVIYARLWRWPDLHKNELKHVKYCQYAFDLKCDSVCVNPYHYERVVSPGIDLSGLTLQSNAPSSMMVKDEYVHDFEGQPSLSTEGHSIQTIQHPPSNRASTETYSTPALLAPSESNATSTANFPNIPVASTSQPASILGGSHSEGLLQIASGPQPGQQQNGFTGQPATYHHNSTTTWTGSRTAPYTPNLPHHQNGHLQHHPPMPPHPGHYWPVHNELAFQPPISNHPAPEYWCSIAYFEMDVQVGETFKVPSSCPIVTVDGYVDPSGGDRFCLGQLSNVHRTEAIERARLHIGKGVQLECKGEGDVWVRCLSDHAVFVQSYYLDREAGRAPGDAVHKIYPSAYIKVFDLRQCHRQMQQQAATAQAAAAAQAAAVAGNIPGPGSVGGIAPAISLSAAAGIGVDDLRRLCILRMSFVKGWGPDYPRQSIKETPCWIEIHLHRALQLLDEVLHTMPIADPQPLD

NRF1 (Homo sapiens) = biological target: T5, NRF1 (Homo sapiens) (UniProt Q16656)
T5 sequence (looked up, limits assumed): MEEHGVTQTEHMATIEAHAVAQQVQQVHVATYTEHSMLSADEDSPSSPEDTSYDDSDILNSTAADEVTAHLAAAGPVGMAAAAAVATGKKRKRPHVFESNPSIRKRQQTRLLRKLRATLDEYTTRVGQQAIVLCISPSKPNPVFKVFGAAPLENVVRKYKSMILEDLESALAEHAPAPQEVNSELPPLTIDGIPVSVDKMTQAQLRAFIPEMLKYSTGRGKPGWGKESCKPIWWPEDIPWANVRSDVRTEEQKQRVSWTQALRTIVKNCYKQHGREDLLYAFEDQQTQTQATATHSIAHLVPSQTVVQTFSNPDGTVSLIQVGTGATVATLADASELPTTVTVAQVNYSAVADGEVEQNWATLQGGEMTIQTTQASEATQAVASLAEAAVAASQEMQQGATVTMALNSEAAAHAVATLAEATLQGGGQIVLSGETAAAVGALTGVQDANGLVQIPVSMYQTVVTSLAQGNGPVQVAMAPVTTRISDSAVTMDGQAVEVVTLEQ

TFAP2A (Homo sapiens) = TFAP2A (Homo sapiens) (UniProt P05549)
ZCCHC7 (Homo sapiens) = biological target: T6, ZCCHC7 (Homo sapiens) (UniProt Q8N3Z6)
T6 sequence (looked up, limits assumed): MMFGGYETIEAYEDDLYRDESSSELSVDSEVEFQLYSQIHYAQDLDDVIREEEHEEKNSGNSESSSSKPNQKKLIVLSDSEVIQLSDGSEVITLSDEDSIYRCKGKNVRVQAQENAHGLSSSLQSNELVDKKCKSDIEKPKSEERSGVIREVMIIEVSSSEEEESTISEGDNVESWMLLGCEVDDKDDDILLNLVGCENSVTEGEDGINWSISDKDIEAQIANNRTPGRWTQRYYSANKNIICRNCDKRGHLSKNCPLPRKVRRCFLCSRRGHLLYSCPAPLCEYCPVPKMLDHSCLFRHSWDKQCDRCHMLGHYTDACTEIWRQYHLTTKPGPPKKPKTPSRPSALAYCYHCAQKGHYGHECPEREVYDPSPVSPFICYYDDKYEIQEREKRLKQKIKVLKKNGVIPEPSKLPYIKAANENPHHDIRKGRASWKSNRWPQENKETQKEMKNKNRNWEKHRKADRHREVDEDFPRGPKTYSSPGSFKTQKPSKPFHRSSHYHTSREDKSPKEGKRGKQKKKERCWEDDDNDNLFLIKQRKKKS

Measured: binding result

CCCTCCCGAAACCCTCCCGCCCTATAGTGAGTGCTATTA (double strand) [M31]
binds: GATA4 (Homo sapiens) | SCAPER (Homo sapiens) | PPARG (Homo sapiens) | ZNF114 (Homo sapiens) | E2F3 (Homo sapiens) | HOXA5 (Homo sapiens) | RNF138 (Homo sapiens) | RXRA (Homo sapiens) | BCL3 (Homo sapiens) | ZNF416 (Homo sapiens) | ZNF695 (Homo sapiens) | SMAD4 (Homo sapiens)

CGGGCTCAAACGGGCTCCCCTATAGTGAGTGCTATTA (double strand) [M310]
binds: GATA4 (Homo sapiens) | SCAPER (Homo sapiens) | NRF1 (Homo sapiens) | TFAP2A (Homo sapiens) | PPARG (Homo sapiens) | ZNF114 (Homo sapiens) | HOXA5 (Homo sapiens) | ZCCHC7 (Homo sapiens) | RNF138 (Homo sapiens) | RXRA (Homo sapiens) | BCL3 (Homo sapiens) | ZNF416 (Homo sapiens) | ZNF695 (Homo sapiens)

CGGGAGCTTTCGGGAGCCCCTATAGTGAGTGCTATTA (double strand) [M306]
binds: GATA4 (Homo sapiens) | SCAPER (Homo sapiens) | TFAP2A (Homo sapiens) | PPARG (Homo sapiens) | ZNF114 (Homo sapiens) | E2F3 (Homo sapiens) | HOXA5 (Homo sapiens) | ZCCHC7 (Homo sapiens) | RNF138 (Homo sapiens) | RXRA (Homo sapiens) | ZNF416 (Homo sapiens) | ZNF695 (Homo sapiens)

AGGGTCGCGTGAGTATAAAAGCCGGTTTTCGGGGAAAAGGGTCGCGTGAGTATAAAAGCCGGTTTTCGGGGCCCTATAGTGAGTGCTATTA (double strand) [M41]
binds: SCAPER (Homo sapiens) | NRF1 (Homo sapiens) | TFAP2A (Homo sapiens) | E2F3 (Homo sapiens) | HOXA5 (Homo sapiens) | ZNF416 (Homo sapiens) | ZNF695 (Homo sapiens)

ACGATTAGCCCACGATTAGCCCTATAGTGAGTGCTATTA (double strand) [M414]
binds: GATA4 (Homo sapiens) | SCAPER (Homo sapiens) | PPARG (Homo sapiens) | ZNF114 (Homo sapiens) | HOXA5 (Homo sapiens) | RNF138 (Homo sapiens) | RXRA (Homo sapiens) | ZNF416 (Homo sapiens) | SMAD4 (Homo sapiens)

TTTCGCGCAAATTTCGCGCCCCTATAGTGAGTGCTATTA (double strand) [M1]
binds: SCAPER (Homo sapiens) | NRF1 (Homo sapiens) | TFAP2A (Homo sapiens) | ZNF114 (Homo sapiens) | E2F3 (Homo sapiens) | HOXA5 (Homo sapiens) | RXRA (Homo sapiens) | ZNF416 (Homo sapiens) | ZNF695 (Homo sapiens)
